# Results deposited as PubChem BioAssay AID1259254 (NCATS, 2017).
# Purpose: 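Genome-wide screen for genes that prevent DNA re-replication in cancer cells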 (primary screen)
# Cells: human HCT116 colorectal cancer cells
# Knock-down reagent: single siRNA against human genes
# Duration: 3 days
# Measurement: 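Nuclei stained with Hoechst and imaged; cell-cycle phase assigned by DNA content; G2 share scaled per plate, non-targeting siRNA 0%, GMNN siRNA 100%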
# Direction: G2 robust z-score: higher = more G2 cells, more excess DNA replication
# Rule for the call: 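An siRNA counts as active if its G2 robust z-score lies at least 5 MADs above the screen median; here such calls match roughly 38% of GMNN control or more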
# Here is an unselected part of about 59,000 reagents tested. About 1,550 of all reagents (2.6%) were called active. 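G2 share is only a proxy for re-replication; each gene was hit by three separate siRNAs, and active genes were retested.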 The numbers tell different reagents against one gene apart. Not all columns of the deposit are shown. The record does not give: the amount of reagent.
G2 robust z-score,activity call,gene symbol,siRNA no.
-0.36,inactive,LHFPL4 (GeneID 375323),1
2.66,inactive,LHFPL4 (GeneID 375323),2
0.649,inactive,LHFPL4 (GeneID 375323),3
5.23,active,PTGIS (GeneID 5740),1
0.224,inactive,PTGIS (GeneID 5740),2
-1.03,inactive,PTGIS (GeneID 5740),3
2.95,inactive,ZBTB34 (GeneID 403341),1
2.12,inactive,ZBTB34 (GeneID 403341),2
-0.624,inactive,ZBTB34 (GeneID 403341),3
-1.33,inactive,FABP9 (GeneID 646480),1
-0.795,inactive,FABP9 (GeneID 646480),2
0.133,inactive,FABP9 (GeneID 646480),3
0.0939,inactive,ZNHIT6 (GeneID 54680),1
-0.592,inactive,ZNHIT6 (GeneID 54680),2
0.465,inactive,ZNHIT6 (GeneID 54680),3
1.85,inactive,PWWP3A (GeneID 84939),1
1.77,inactive,PWWP3A (GeneID 84939),2
4.6,inactive,PWWP3A (GeneID 84939),3
0.516,inactive,MRO (GeneID 83876),1
4.53,inactive,MRO (GeneID 83876),2
0.207,inactive,MRO (GeneID 83876),3
3,inactive,DISC1 (GeneID 27185),1
0.476,inactive,DISC1 (GeneID 27185),2
-0.257,inactive,DISC1 (GeneID 27185),3
0.949,inactive,MRPL49 (GeneID 740),1
0.775,inactive,MRPL49 (GeneID 740),2
0.0992,inactive,MRPL49 (GeneID 740),3
0.212,inactive,APOH (GeneID 350),1
1.48,inactive,APOH (GeneID 350),2
2.46,inactive,APOH (GeneID 350),3
-0.711,inactive,KIRREL3 (GeneID 84623),1
-0.949,inactive,KIRREL3 (GeneID 84623),2
1.23,inactive,KIRREL3 (GeneID 84623),3
-0.434,inactive,ADAMTSL5 (GeneID 339366),1
-0.112,inactive,ADAMTSL5 (GeneID 339366),2
-0.744,inactive,ADAMTSL5 (GeneID 339366),3
0.649,inactive,RALY (GeneID 22913),1
-0.505,inactive,RALY (GeneID 22913),2
-0.763,inactive,RALY (GeneID 22913),3
0.695,inactive,UBAP1 (GeneID 51271),1
2.17,inactive,UBAP1 (GeneID 51271),2
1.95,inactive,UBAP1 (GeneID 51271),3
-0.407,inactive,CNTN5 (GeneID 53942),1
-0.958,inactive,CNTN5 (GeneID 53942),2
-0.348,inactive,CNTN5 (GeneID 53942),3
1.4,inactive,RRAGB (GeneID 10325),1
1.12,inactive,RRAGB (GeneID 10325),2
-1.22,inactive,RRAGB (GeneID 10325),3

Already shown: an excerpt of the list.
G2 robust z-score,activity call,gene symbol,siRNA no.
1.23,inactive,KIRREL3 (GeneID 84623),3
-0.434,inactive,ADAMTSL5 (GeneID 339366),1
-0.112,inactive,ADAMTSL5 (GeneID 339366),2
-0.744,inactive,ADAMTSL5 (GeneID 339366),3
0.649,inactive,RALY (GeneID 22913),1
-0.505,inactive,RALY (GeneID 22913),2
-0.763,inactive,RALY (GeneID 22913),3
